Measurements published in PubChem BioAssay AID624291 (National Center for Advancing Translational Sciences (NCATS), 2012).
About 220 (0.063%) of roughly 350,000 compounds were called active. Inconclusive means that the source gave no clear call. Such entries were picked first, then a sample of the others. Calls follow the shape of the dose curve; as a rule, active = well fitted activation curve with a large enough effect; inconclusive = small, poorly fitted or top-dose-only effect; inactive = no such curve, though single readings can be large or run the other way. Potencies beside an inconclusive call are fits to weak or partial responses and may not hold up.

Assay: qHTS for Activators of Integrin-Mediated Alleviation for Muscular Dystrophy; also: nearly all actives have a fitted effect of over 60% in size;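 as to activation: 100% = response of the positive control SU9516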
Details: alpha7betagal myoblasts, beta-gal FDG fluorescence, 48 h; activation: at 38.3 µM (top of the series)
Procedure, shortened: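 Alpha7betagal+/- myoblasts (passage 13) were plated 16-24 hr, then exposed to compounds (1:260 dilution of DMSO stock) for 48 hours at 37C. After MPER lysis, β-galactosidase reporter activity was read as FDG fluorescence (ex 480/em 540) after 30 minutes.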
Potency is read from the fitted curve at half-maximal effect.

| Compound | activation | Potency |
| --- | --- | --- |
| C=CCn1c(-c2cccc(OCC)c2)n[nH]c1=S | inactive: 2.65% |  |
| CCOC(=O)c1c(NC(=O)c2ccc(S(=O)(=O)N(C)CC3CCCO3)cc2)sc2c1CC(C)(C)NC2(C)C (centres undefined) |  | inconclusive: 11.2 µM [activator, partial curve, poor fit] |
| C/C(=N\NC(=S)Nc1ccccc1C)c1cc2ccccc2o1 | inactive: 18.6% |  |
| Cc1c(C(=O)N2CCN(S(=O)(=O)c3cc(F)ccc3F)CC2)oc2ccccc12 | inactive: 5.03% |  |
| CC1(C)CC2(CC(c3ccc(F)cc3)c3ccc(O)cc3O2)NC(=S)N1 (centres undefined) |  | inconclusive: 11.2 µM [activator, partial curve, poor fit] |
| COc1ccc(OC)c(NC(=O)CCCc2ccccc2)c1 |  | inconclusive: 0.501 µM [activator, partial curve, poor fit] |
| CN(CC(=O)Nc1cccc(F)c1)C(=O)c1ccccc1Cc1ccccc1 | inactive: -2.56% |  |
| Nc1c(N(CCO)C(=O)/C=C/c2ccco2)c(=O)[nH]c(=O)n1Cc1ccccc1 |  | inconclusive: 3.55 µM [activator, full curve, poor fit] |
| Cn1c(CCN2CCN(c3ccccn3)CC2)nc2cc(NS(=O)(=O)c3ccccc3)ccc21 |  | inconclusive: 2.24 µM [activator, partial curve, poor fit] |
| Cc1cc(C)n(CC(O)COc2ccccc2C)n1 (centres undefined) |  | inconclusive: 5.01 µM [activator, single point] |
| Cc1ccc(NC(=S)NNC(=S)Nc2cccc(C(F)(F)F)c2)cc1 | inactive: -40.6% |  |
| CC(=O)C(C)Oc1ccc2c3c(c(=O)oc2c1)CCCCC3 (centres undefined) | inactive: -3.68% |  |
| CC1CC(=O)NN=C1c1cccs1 (centres undefined) |  | inconclusive: 3.98 µM [activator, single point] |
| O=[N+]([O-])c1ccccc1OCC(O)CN1CCN(CC(O)COc2ccccc2[N+](=O)[O-])CC1 (centres undefined) |  | inconclusive: 10 µM [activator, partial curve, poor fit] |
| O=C(C[n+]1ccccc1)N/N=C/c1cc(Br)ccc1F | inactive: -4.23% |  |
| C[C@H](NS(=O)(=O)c1ccccc1)C(=O)N1CCN(C(c2ccccc2)c2ccccc2)CC1 |  | inconclusive: 11.2 µM [activator, partial curve, poor fit] |
| CC(C#N)(Cc1ccccc1)Nc1ccccc1 (centres undefined) |  | inconclusive: 11.2 µM [activator, partial curve, poor fit] |
| O=C(CCC(=O)N1CCN(S(=O)(=O)c2ccc(Cl)cc2)CC1)Nc1ccc2ccccc2c1 |  | inconclusive: 3.55 µM [activator, single point] |
| COc1cccc(Oc2nnnn2-c2ccccc2)c1 |  | inconclusive: 5.01 µM [activator, single point] |
| Cc1cc(Br)ccc1OCC(=O)NC1CCCC1 |  | inconclusive: 3.55 µM [activator, partial curve] |
| CCCN1C(=O)c2ccc(C(=O)Nc3ccc4c(c3)OCO4)cc2C1=O |  | inconclusive: 3.55 µM [activator, single point] |
| N#Cc1cc2c([nH]c1=S)CCCCCC2 | inactive: 20.3% |  |
| O=C1c2ccccc2C(=O)N1CC(O)COc1ccc(Cl)cc1 (centres undefined) |  | inconclusive: 31.6 µM [activator, single point] |

| Compound | activation | Potency |
| --- | --- | --- |
| COc1ccccc1NC(=O)CSc1nnc(COc2ccc(Cl)cc2)o1 |  | inconclusive: 8.91 µM [activator, partial curve, poor fit] |
| COc1cc(CNC(=O)OCC(C)C)cc(OC)c1OC |  | inconclusive: 31.6 µM [activator, single point] |
| COc1cccc(NC(=O)C(OC(=O)/C=C/c2ccc3c(c2)OCO3)c2ccccc2)c1 (centres undefined) | inactive: 2.14% |  |
| COc1cc(OC)cc(C(=O)N2CCN(S(=O)(=O)c3ccc(Cl)s3)CC2)c1 |  | inconclusive: 5.01 µM [activator, single point] |
| CN(c1ccccc1)S(=O)(=O)c1ccc(NC(=S)NC(=O)C2CC2)cc1 | inactive: -6.76% |  |
| c1cnn(-c2nc(N3CCOCC3)nc(N3CCOCC3)n2)c1 |  | inconclusive: 3.16 µM [activator, partial curve, poor fit] |
| Fc1ccc2nc(C(F)(F)F)cc(N3CCOCC3)c2c1 |  | inconclusive: 5.01 µM [activator, single point] |
| COc1ccccc1N1C(=O)CC(N2CCN(c3ccc(Cl)cc3)CC2)C1=O (centres undefined) |  | inconclusive: 31.6 µM [activator, single point] |
| CCOc1ccc(CNC(=O)C2CCN(c3nn4c(=O)cc(C)nc4s3)CC2)cc1 | inactive: -0.104% |  |
| O=C(CSc1nc(-c2cccs2)nc2ccccc12)NC1CCS(=O)(=O)C1 (centres undefined) |  | inconclusive: 11.2 µM [activator, partial curve, poor fit] |
| Cc1cccc(N(C)S(=O)(=O)c2c[nH]c3ccc([N+](=O)[O-])cc23)c1 |  | inconclusive: 0.316 µM [activator, full curve, poor fit] |
| C=CCNC(=O)c1ccc(NC(=O)CC2SC(N3CCCC3)=NC2=O)cc1 (centres undefined) |  | inconclusive: 28.2 µM [activator, single point] |
| Cc1onc(-c2ccccc2)c1C(=O)OCC(=O)NCc1ccc(F)cc1 |  | inconclusive: 31.6 µM [activator, single point] |
| CC(C)(C)OC(=O)N1CC=C2C(C#N)=C(N)C(C#N)(C#N)C(c3cccs3)C2C1 (centres undefined) |  | inconclusive: 2.82 µM [activator, single point] |
| CCC(=O)NCCc1nc2cc(NC(=O)c3cccc([N+](=O)[O-])c3)ccc2n1C |  | inconclusive: 0.501 µM [activator, full curve, poor fit] |
| CN(C)c1ccc(/C=N/N2CCN(Cc3ccccc3Cl)CC2)cc1 | inactive: 3.98% |  |
| Cc1ccc(Sc2c(C#N)c(-c3ccccc3)nn2C)cc1 | inactive: 4.72% |  |
| COC(=O)COc1c(Cl)cc(Cl)c2ccc(C)nc12 | inactive: 23.2% |  |
| CN(C)c1cccc2c1c(NC(=O)Nc1ccccc1)nn2C |  | inconclusive: 11.2 µM [activator, partial curve, poor fit] |
| Cc1ccc(-c2cn(-c3ccc(OC(F)F)cc3)c3[n+]2CCCCC3)cc1 | inactive: -16.3% |  |
| Cc1cccc(/C(N)=N/OC(=O)c2ccoc2C)c1 |  | inconclusive: 14.1 µM [activator, partial curve, poor fit] |
| O=C(Nc1nnc(-c2ccc3c(c2)CCCC3)o1)C1CCCCC1 | inactive: 22.9% |  |
| CCC(=O)Nc1cc(C(F)(F)F)ccc1N1CCCC1 |  | inconclusive: 3.16 µM [activator, single point] |

Reprinted from the entries so far, 18 compounds:

| Compound | activation | Potency |
| --- | --- | --- |
| Nc1c(N(CCO)C(=O)/C=C/c2ccco2)c(=O)[nH]c(=O)n1Cc1ccccc1 |  | inconclusive: 3.55 µM [activator, full curve, poor fit] |
| Cn1c(CCN2CCN(c3ccccn3)CC2)nc2cc(NS(=O)(=O)c3ccccc3)ccc21 |  | inconclusive: 2.24 µM [activator, partial curve, poor fit] |
| Cc1cc(C)n(CC(O)COc2ccccc2C)n1 (centres undefined) |  | inconclusive: 5.01 µM [activator, single point] |
| Cc1ccc(NC(=S)NNC(=S)Nc2cccc(C(F)(F)F)c2)cc1 | inactive: -40.6% |  |
| CC(=O)C(C)Oc1ccc2c3c(c(=O)oc2c1)CCCCC3 (centres undefined) | inactive: -3.68% |  |
| CC1CC(=O)NN=C1c1cccs1 (centres undefined) |  | inconclusive: 3.98 µM [activator, single point] |
| O=[N+]([O-])c1ccccc1OCC(O)CN1CCN(CC(O)COc2ccccc2[N+](=O)[O-])CC1 (centres undefined) |  | inconclusive: 10 µM [activator, partial curve, poor fit] |
| O=C(C[n+]1ccccc1)N/N=C/c1cc(Br)ccc1F | inactive: -4.23% |  |
| C[C@H](NS(=O)(=O)c1ccccc1)C(=O)N1CCN(C(c2ccccc2)c2ccccc2)CC1 |  | inconclusive: 11.2 µM [activator, partial curve, poor fit] |
| CC(C#N)(Cc1ccccc1)Nc1ccccc1 (centres undefined) |  | inconclusive: 11.2 µM [activator, partial curve, poor fit] |
| O=C(CCC(=O)N1CCN(S(=O)(=O)c2ccc(Cl)cc2)CC1)Nc1ccc2ccccc2c1 |  | inconclusive: 3.55 µM [activator, single point] |
| COc1cccc(Oc2nnnn2-c2ccccc2)c1 |  | inconclusive: 5.01 µM [activator, single point] |
| Cc1cc(Br)ccc1OCC(=O)NC1CCCC1 |  | inconclusive: 3.55 µM [activator, partial curve] |
| CCCN1C(=O)c2ccc(C(=O)Nc3ccc4c(c3)OCO4)cc2C1=O |  | inconclusive: 3.55 µM [activator, single point] |
| N#Cc1cc2c([nH]c1=S)CCCCCC2 | inactive: 20.3% |  |
| O=C1c2ccccc2C(=O)N1CC(O)COc1ccc(Cl)cc1 (centres undefined) |  | inconclusive: 31.6 µM [activator, single point] |
| COc1ccccc1NC(=O)CSc1nnc(COc2ccc(Cl)cc2)o1 |  | inconclusive: 8.91 µM [activator, partial curve, poor fit] |
| COc1cc(CNC(=O)OCC(C)C)cc(OC)c1OC |  | inconclusive: 31.6 µM [activator, single point] |

Next part.

| Compound | activation | Potency |
| --- | --- | --- |
| CCc1ccc(C(=O)CSc2n[nH]c(-c3ccncc3)n2)cc1 | inactive: -0.375% |  |
| COCCN(CCOC)S(=O)(=O)c1ccc(C(=O)Nc2ccncc2)cc1 |  | inconclusive: 3.55 µM [activator, single point] |
| O=C(N/N=C/c1cccs1)c1ccc2ncccc2c1 | inactive: 4.52% |  |
| CCN=c1scc(-c2ccccc2)n1/N=C/c1ccccn1 | inactive: -9.47% |  |
| CC(C)c1cc(C(N)=O)c(NC(=O)c2cccc(COc3ccc(Br)cc3)c2)s1 |  | inconclusive: 2.82 µM [activator, single point] |
| CC(C)c1c(C(=O)N/N=C/c2ccncc2)nnn1-c1nonc1N |  | inconclusive: 5.01 µM [activator, single point] |
| CCOc1ccc(-c2c(C(=O)N/N=C(\C)c3cccs3)nnn2-c2nonc2N)cc1 |  | inconclusive: 28.2 µM [activator, single point] |
| CCOc1ccccc1NS(=O)(=O)c1ccc2c(c1)NC(=O)CCS2 |  | inconclusive: 22.4 µM [activator, partial curve, poor fit] |
| C=CCc1c(C)nc(SCc2ccccc2)[nH]c1=O |  | inconclusive: 5.01 µM [activator, single point] |
| COc1cc(NC(=S)NCCO)c(OC)cc1Cl | inactive: 2.37% |  |
| Cc1onc(-c2ccccc2)c1C(=O)Nc1ccncc1 |  | inconclusive: 5.01 µM [activator, single point] |
| O=C(c1cn(-c2ccccc2)nc1-c1ccccc1)n1nnc2ccccc21 |  | inconclusive: 2.24 µM [activator, partial curve, poor fit] |
| Cc1ccc(C(=O)Nc2cccc(C(F)(F)F)c2)cc1Nc1ncnc2nc[nH]c12 |  | inconclusive: 5.01 µM [activator, single point] |
| CC(C)N1CCN(S(=O)(=O)c2ccccc2)CC1 |  | inconclusive: 5.01 µM [activator, single point] |
| C=CCOc1ccc(C(=O)Nc2ncn[nH]2)cc1 |  | inconclusive: 28.2 µM [activator, single point] |
| Cc1c(C(=O)Nc2ccc(Cl)cc2)c2ccccn2c1C(=O)c1ccc(F)cc1 | inactive: 28.1% |  |
| CCc1nnc(NS(=O)(=O)c2ccc(N3C(=O)c4ccccc4C3=O)cc2)s1 |  | inconclusive: 3.98 µM [activator, partial curve, poor fit] |
| CC(C)(C)C(=O)N(Cc1nc2ccccc2c(=O)[nH]1)Cc1cccs1 | inactive: 3.91% |  |
| CCOc1ccc(Cc2noc3c2C(=O)CC(C)(C)C3)cc1OCC | inactive: -18.4% |  |
| COc1ccc(CNC(=O)c2ccc3ccccc3n2)cc1 |  | inconclusive: 5.01 µM [activator, single point] |
| CCOc1ccccc1NC(=O)NC1CC2CCCC(C1)N2Cc1nnnn1CCc1ccccc1 (centres undefined) |  | inconclusive: 12.6 µM [activator, partial curve, poor fit] |
| O=C1CN(C(=O)COc2ccc(Br)cc2)c2ccccc2N1 |  | inconclusive: 28.2 µM [activator, single point] |
| COc1cc(C(=O)NCc2nnc(SCC(=O)Nc3cccc(C(F)(F)F)c3)o2)cc(OC)c1OC |  | inconclusive: 7.08 µM [activator, partial curve, poor fit] |
